# Results reported in patent publication US20240199525A1, “SHP2-Targeting Small Molecules For Use As Anti-Cancer Agents” (West Virginia University Board of Governors on behalf of …, priority 2022, published 2024).
# For at least one compound, name, drawing or mass did not settle the structure.
# Assays:
# Assay type in all cases: cell-based
# [1] = test system: Akt and ERK1/2 activation (pAkt, pERK); assay: Immunoblotting for basal Akt and ERK1/2 activation, BPDA2; settings: 0.2-3.2 μM, regular growth medium
# [2] = test system: four RTKs known to be regulated by SHP2; assay: Immunoblotting for RTK expression, BPDA2; settings: 0.2-3.2 μM
# [3] = test system: JIMT-1 and MDA-MB468 cells; assay: Anchorage-independent growth (soft agar colony formation) assay, BPDA2; settings: 250 nM to 4.0 μM
# [4] = test system: JIMT-1 and MDA-MB468 cells; assay: Mammosphere formation assay, BPDA2; settings: 0.5-4 μM, 10 days
compound,measurement,setting,value
"CCCCCCCCCOc1ccc(-c2ccc(CC(=O)O)cc2)cc1C(=O)O [BPDA2, 4′-(carboxymethyl)-4-(nonyloxy)-[1,1′-biphenyl]-3-carboxylic acid]",basal activation of Akt and ERK1/2,[1],inhibited basal activation of Akt and ERK 1/2 in a concentration dependent manner
same,expression of the four RTKs,[2],downregulated the expression of the four RTKs in a concentration dependent manner
same,colony formation in soft agar,[3],suppression of colony formation by BPDA2 in a concentration dependent manner
same,mammosphere formation in suspension culture,[4],fewer and smaller ones as the concentration increased
